Assay results: PubChem BioAssay AID2685 (National Center for Advancing Translational Sciences (NCATS), 2010)
The other results are listed elsewhere or left out. The main result of the screen is listed elsewhere. These columns were measured beside it and carry no call. Compounds called inactive in the main read-out are mostly missing here. The note in brackets gives the kind of curve behind each potency; many fits are weak.

Test: qHTS Assay for Lipid Storage Modulators in Drosophila S3 Cells;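 for cell number change: cells counted by Cell Tracker Red CMTPX staining in the red channel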
Settings: BODIPY lipid droplet fluorescence, 18-24 h; for cell number change: measured here: cell count max response, cells fed with added oleic acid
Summary of the method: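 Laser-scanning cytometry quantifies lipid droplet accumulation (500–530 nm total intensity; droplet/cell object ratio) in oleic acid-fed (400 uM added) Drosophila S3 cells treated with a concentration series. 20 uM Triacsin C defined 100% inhibition.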

[1] = measured here: lipid fluorescence (Fed channel) AC50, cells fed with added oleic acid
[2] = measured here: cell number channel AC50, cells fed with added oleic acid

Row | SMILES | cell number change [%] | AC50 [1] | AC50 [2]
1 | COc1cc(OC)cc(C(=O)NNC(=O)CN2C(=O)NC(C)(c3ccccc3)C2=O)c1 (stereo unspecified) | 0.855 | 29.1 µM [rising, partial curve, poor fit] | 
2 | CN(Cc1ccccc1)c1ccc(S(=O)(=O)N2CCC(C(=O)O)CC2)cc1[N+](=O)[O-] | 32.9 | 0.164 µM [rising, full curve] | 0.146 µM [rising, full curve, poor fit]
3 | Cc1ccc(-n2nc3c(c2NC(=O)c2ccc4c(c2)OCO4)CS(=O)(=O)C3)cc1 | 13.7 | 0.461 µM [falling, full curve, poor fit] | 
4 | N#C/C(=C(\O)CCl)c1nnc2n1CCCCC2 | -16.9 | 0.116 µM [falling, full curve, poor fit] | 
5 | COc1ccc(C2=NN(C(=O)c3ccc(Cl)c([N+](=O)[O-])c3)C(c3ccccc3)C2)cc1 (stereo unspecified) | 2.81 | 18.4 µM [rising, single point] | 
6 | COc1cc(OC)cc(C(=O)NNC(=O)CN2C(=O)NC(C)(c3ccc(C)cc3)C2=O)c1 (stereo unspecified) | 20.2 | 29.1 µM [rising, single point] | 
7 | O=C(NCCOCCNC(=O)OCc1ccccc1)OCc1ccccc1 | 11.8 |  | 
8 | CCOC(=O)N1CCN(C(=O)C(C)n2nc(C)n3c(cc4sccc43)c2=O)CC1 (stereo unspecified) | 7.18 |  | 0.164 µM [rising, full curve, poor fit]
9 | CC(C)NC(=O)c1cc2c(=O)n3ccccc3nc2s1 | 26.1 | 29.1 µM [rising, single point] | 0.00411 µM [rising, full curve, poor fit]
10 | CCn1c(C)nnc1SCC(=O)NC1CCCC1 | -10 |  | 
11 | O=C(NCCCn1ccnc1)C1CC(c2ccccc2Cl)=NO1 (stereo unspecified) | 6.95 | 0.206 µM [rising, full curve, poor fit] | 
12 | CCOC(=O)C(CC)n1cnc2c(nnn2-c2cccc(OC)c2)c1=O (stereo unspecified) | -18 | 0.58 µM [rising, single point] | 
13 | O=C(Nc1nccs1)C(c1ccccc1)N1CCCCC1 (stereo unspecified) | 24.9 | 0.82 µM [rising, partial curve, poor fit] | 0.82 µM [rising, partial curve, poor fit]
14 | COc1ccc(-n2c(=S)[nH]c3cc(C(=O)NCc4cccnc4)ccc3c2=O)c(OC)c1 | 14.5 | 1.3 µM [rising, full curve] | 
15 | CCCC(=O)Nc1cc(S(=O)(=O)N2CCCCC2)ccc1N1CCOCC1 | -1.2 | 6.51 µM [rising, single point] | 
16 | COc1ccc(-c2csc(-c3ccc(C(=O)O)cc3)n2)cc1 | -21.6 |  | 
17 | Cc1cccn2c(=O)c3cc(C(=O)NC4CCS(=O)(=O)C4)n(Cc4ccccc4)c3nc12 (stereo unspecified) | 237 | 29.1 µM [rising, single point] | 29.1 µM [rising, single point]
18 | Cc1ccc(C2C(C#N)=C(N)Oc3cc4c(cc32)OCO4)cc1 (stereo unspecified) |  | 6.51 µM [rising, single point] | 6.51 µM [rising, single point]
19 | O=C(NCCCN1CCOCC1)NC12CC3CC(CC(C3)C1)C2 | 5.91 | 0.231 µM [rising, full curve, poor fit] | 

Row | SMILES | cell number change [%] | AC50 [1] | AC50 [2]
20 | CCOC(=O)C1CCCN(Cc2nc3ccc([N+](=O)[O-])cc3c(=O)n2-c2ccc(OC)cc2OC)C1 (stereo unspecified) | -12.9 | 6.51 µM [rising, partial curve, poor fit] | 6.51 µM [rising, partial curve, poor fit]
21 | COc1ccc2[nH]c(C(=O)NCCCN3CCCC3=O)c(C)c2c1 | 1.98 | 0.116 µM [falling, single point] | 
22 | Cc1c(Nc2nc(-c3cccc([N+](=O)[O-])c3)cs2)c(=O)n(-c2ccccc2)n1C | 4.77 | 9.2 µM [rising, partial curve, poor fit] | 
23 | CCN(CC)CC(=O)N(CC(=O)Nc1c(C)cc(C)cc1C)C1CCCCC1 | -14.4 | 2.59 µM [rising, single point] | 
24 | COc1ccc(C#Cc2ccc3c(=O)c4ccccc4n(C)c3c2)cc1 | 19.7 | 0.13 µM [falling, full curve, poor fit] | 
25 | O=C(/C=C/c1cccc(Cl)c1)OCc1cn2cc(Cl)ccc2n1 | 51.4 | 6.51 µM [falling, single point] | 6.51 µM [falling, single point]
26 | O=[N+]([O-])c1ccc(S(=O)(=O)NCC(c2ccco2)N2CCc3ccccc3C2)cc1 (stereo unspecified) | 21.4 | 7.31 µM [rising, partial curve, poor fit] | 
27 | CCS(=O)(=O)Nc1ccc2c(c1)OCO2 | -19.6 | 0.517 µM [falling, full curve] | 
28 | CCCN(CC1CC1)C(=O)COC(=O)c1oc2c(F)cccc2c1C |  | 0.731 µM [falling, full curve] | 
29 | O=C(CCc1nc(-c2ccccc2F)no1)NCCc1ccccc1Cl | -24.2 |  | 
30 | CC(C)NC(=O)c1ccccc1N(Cc1ccccc1)S(C)(=O)=O | -11.9 |  | 
31 | COC(=O)c1ccc(Cl)c(NC(C)=O)c1 | -19.3 | 29.1 µM [rising, single point] | 0.651 µM [falling, full curve, poor fit]
32 | COc1ccccc1C(=O)Nc1ccc(Cc2ccncc2)cc1 | 2.14 | 0.411 µM [falling, full curve] | 0.92 µM [rising, partial curve]
33 | Cc1sc(NC(=O)CSc2nc(N)cc(N)n2)c(C#N)c1C | 13 | 0.0366 µM [rising, full curve] | 
34 | CCC[C@@H]1CCCC/C=C\CCCC(=O)OCCN1C(=O)OC(C)(C)C | 9.25 | 0.00517 µM [falling, full curve, poor fit] | 1.16 µM [falling, single point]
35 | COC(=O)C1CCN(C(=O)Cc2ccc(Br)cc2)CC1 | -34.6 | 0.58 µM [falling, single point] | 
36 | COc1ccc(NC(=S)NC2CC3CCCC(C2)N3C2CC2)cc1 (stereo unspecified) | -48.4 | 2.59 µM [rising, single point] | 29.1 µM [falling, single point]
37 | COc1ccc(-c2oc(=O)c3cc(OC)c(OC)cc3c2-c2cc(F)cc(OC)c2)cc1 | -25.9 |  | 0.146 µM [falling, full curve, poor fit]
38 | O=[N+]([O-])c1ccc(CN2CCN(c3ccc(F)cc3)CC2)o1 | -5.96 | 0.58 µM [falling, single point] | 

Row | SMILES | cell number change [%] | AC50 [1] | AC50 [2]
39 | CCOC(=O)c1c(-c2ccccc2)oc2ccc(OC(C)C(=O)O)cc12 (stereo unspecified) | -8 |  | 0.184 µM [falling, full curve, poor fit]
40 | COC(=O)c1ccc2c(c1)C(C)(C)C(/C=C/c1ccc(O)cc1)=[N+]2C |  | 9.2 µM [falling, partial curve, poor fit] | 
41 | CC1(C)C2CCC1(C)C(NC(=O)CCN1CCCCC1)C2 (stereo unspecified) | -15.1 | 0.461 µM [rising, partial curve, poor fit] | 
42 | CCOC(=O)CNC(=O)c1cc(OC)cc(OC)c1 | 19.8 | 0.00517 µM [rising, full curve, poor fit] | 3.26 µM [rising, single point]
43 | COc1ccc(C(c2nnnn2C2CCCC2)N2CCC(C)CC2)cc1 (stereo unspecified) | 24.1 | 4.11 µM [falling, partial curve, poor fit] | 
44 | CCc1ccccc1NS(=O)(=O)c1cc2c(cc1C)n(C)c(=O)c(=O)n2C | -33.1 | 1.84 µM [falling, partial curve, poor fit] | 25.9 µM [falling, single point]
45 | COc1ccc(NC(=O)/C(C#N)=C\c2cc(C)n(-c3ccc4c(c3)OCO4)c2C)cc1 | -6.02 | 0.731 µM [rising, partial curve, poor fit] | 0.651 µM [rising, single point]
46 | COc1ccc(NC(=O)CN2CCN(C(=O)C3CCCO3)CC2)c(OC)c1 (stereo unspecified) | -14.6 | 1.84 µM [rising, partial curve] | 
47 | COC(=O)c1ccc(N(C(=O)CNC(=O)c2ccco2)C(C(=O)NCC2CCCO2)c2ccc(OC)c(OC)c2)cc1 (stereo unspecified) | 21 | 29.1 µM [rising, single point] | 
48 | CCCCCCC1CCC(C(=O)N2CCOCC2)CC1 (stereo unspecified) | 11 |  | 0.651 µM [falling, single point]
49 | CCC(C)C(NC(=O)C1CCC(C)CC1)C(=O)NCCc1ccc(S(N)(=O)=O)cc1 (stereo unspecified) | 4.36 | 0.00411 µM [rising, full curve, poor fit] | 
50 | CCc1ccccc1NC(=O)c1cc2sccc2n1C | 43.1 | 18.4 µM [falling, single point] | 29.1 µM [rising, single point]
51 | Cc1cccn2c(=O)c(/C=N/O)c(Nc3ccccc3F)nc12 | 14.3 | 6.51 µM [rising, single point] | 
52 | C/C(=N\N1CCN(c2ccc(Cl)cc2)CC1)c1cccc([N+](=O)[O-])c1 | 17.1 |  | 
53 | NS(=O)(=O)c1ccc(CCNC(=O)c2cnc(Cl)c(Cl)c2)cc1 | 4.58 |  | 
54 | O=C(COc1ccc(-c2ccccc2)cc1)N1CCN(C(=O)c2cccs2)CC1 | -17.6 | 29.1 µM [falling, single point] | 
55 | Oc1ccc(C[C@@H]2CNC(=S)N2CCCCC2CCCCC2)cc1 | -21.5 |  | 
56 | Cc1onc(-c2c(F)cccc2Cl)c1C(=O)OCC(=O)NCc1ccco1 | -0.503 | 29.1 µM [rising, single point] | 

Two consecutive entries out of the list so far:
Row | SMILES | cell number change [%] | AC50 [1] | AC50 [2]
24 | COc1ccc(C#Cc2ccc3c(=O)c4ccccc4n(C)c3c2)cc1 | 19.7 | 0.13 µM [falling, full curve, poor fit] | 
25 | O=C(/C=C/c1cccc(Cl)c1)OCc1cn2cc(Cl)ccc2n1 | 51.4 | 6.51 µM [falling, single point] | 6.51 µM [falling, single point]

2 entries from above, reformatted:

| Row | SMILES | cell number change [%] | AC50 [1] | AC50 [2] |
| --- | --- | --- | --- | --- |
| 45 | COc1ccc(NC(=O)/C(C#N)=C\c2cc(C)n(-c3ccc4c(c3)OCO4)c2C)cc1 | -6.02 | 0.731 µM [rising, partial curve, poor fit] | 0.651 µM [rising, single point] |
| 54 | O=C(COc1ccc(-c2ccccc2)cc1)N1CCN(C(=O)c2cccs2)CC1 | -17.6 | 29.1 µM [falling, single point] |  |
